The target in experiment [1] is T1, PAD4 (phytoalexin deficient4), binding domain (BD) fusion (Arabidopsis) (UniProt Q9S745).
T1 sequence: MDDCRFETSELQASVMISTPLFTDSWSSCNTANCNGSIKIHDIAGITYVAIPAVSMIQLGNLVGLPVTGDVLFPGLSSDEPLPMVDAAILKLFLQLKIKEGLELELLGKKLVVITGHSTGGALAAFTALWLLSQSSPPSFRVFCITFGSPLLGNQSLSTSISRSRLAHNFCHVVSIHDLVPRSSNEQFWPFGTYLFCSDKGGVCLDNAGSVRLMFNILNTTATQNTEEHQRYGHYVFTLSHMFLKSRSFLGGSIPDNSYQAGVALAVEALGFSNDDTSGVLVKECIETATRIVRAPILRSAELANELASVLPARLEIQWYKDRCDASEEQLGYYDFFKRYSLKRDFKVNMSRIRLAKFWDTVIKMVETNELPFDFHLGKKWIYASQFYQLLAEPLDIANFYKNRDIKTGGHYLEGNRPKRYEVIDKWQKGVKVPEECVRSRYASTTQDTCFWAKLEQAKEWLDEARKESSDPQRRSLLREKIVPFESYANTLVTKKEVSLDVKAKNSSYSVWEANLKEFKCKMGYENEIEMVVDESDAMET
Put plainly: two-hybrid.

The target of experiment [2] is T2, PAD4-YFP (Arabidopsis) (UniProt Q9S745).
T2 sequence: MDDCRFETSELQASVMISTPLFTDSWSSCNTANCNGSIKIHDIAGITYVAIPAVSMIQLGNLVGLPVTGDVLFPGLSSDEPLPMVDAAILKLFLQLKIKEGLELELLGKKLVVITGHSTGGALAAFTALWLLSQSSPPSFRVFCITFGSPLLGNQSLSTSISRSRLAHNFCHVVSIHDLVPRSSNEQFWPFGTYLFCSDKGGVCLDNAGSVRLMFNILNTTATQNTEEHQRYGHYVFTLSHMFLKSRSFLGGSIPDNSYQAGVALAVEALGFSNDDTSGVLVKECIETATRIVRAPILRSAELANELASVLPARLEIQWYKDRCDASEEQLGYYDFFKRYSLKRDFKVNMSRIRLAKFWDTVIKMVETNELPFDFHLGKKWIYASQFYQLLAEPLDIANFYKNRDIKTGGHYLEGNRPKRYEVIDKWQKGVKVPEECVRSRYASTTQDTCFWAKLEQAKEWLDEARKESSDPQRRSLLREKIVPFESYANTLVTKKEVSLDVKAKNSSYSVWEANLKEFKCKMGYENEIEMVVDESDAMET
The experiment can be described thus: co-IP.

No constants are given. Whether binding was seen depends on the method and setting. For some assays here: Binding seen in cells or lysates may run through a third protein. Some results given as binding are weak or reduced against the parent protein; the word gives no strength. Where a sequence is shown, tags or fusion partners need not be part of it.

B1: EDS1 (Enhanced disease susceptibility 1), wild type, activation domain (AD) fusion (protein, UniProt Q9XF23 1-623)
chain: MAFEALTGINGDLITRSWSASKQAYLTERYHKEEAGAVVIFAFQPSFSEKDFFDPDNKSSFGEIKLNRVQFPCMRKIGKGDVATVNEAFLKNLEAVIDPRTSFQASVEMAVRSRKQIVFTGHSSGGATAILATVWYLEKYFIRNPNVYLEPRCVTFGAPLVGDSIFSHALGREKWSRFFVNFVTRFDIVPRITLARKASVEETLPHVLAQLDPRNSSVQESEQRITEFYTSVMRDTSTVANQAVCELTGSAEAILETLSSFLELSPYRPAGTFVFSTEKRLVAVNNSDAILQMLFYTCQASDEQEWSLIPFRSIRDHHSYEELVQSMGMKLFNHLDGENSIESSLNDLGVSTRGRQYVQAALEEEKKRVENQKKIIQVIQQERFLKKLAWIEDEYKPKCQAHKNGYYDSFKVSNEENDFKANVKRAELAGVFDEVLGLLKKCQLPDEFEGDIDWIKLATRYRRLVEPLDIANYHRHLKNEDTGPYMKRGRPTRYIYAQRGYEHHILKPNGMIAEDVFWNKVNGLNLGLQLEEIQETLKNSGSECGSCFWAEVEELKGKPYEEVEVRVKTLEGMLREWITAGEVDEKEIFLEGSTFRKWWITLPKNHKSHSPLRDYMMDEITDT
B1: the binding entry in experiment [1] was “binds”.

B2: wild-type EDS1-FLAG (protein, UniProt Q9XF23 1-623)
chain: MAFEALTGINGDLITRSWSASKQAYLTERYHKEEAGAVVIFAFQPSFSEKDFFDPDNKSSFGEIKLNRVQFPCMRKIGKGDVATVNEAFLKNLEAVIDPRTSFQASVEMAVRSRKQIVFTGHSSGGATAILATVWYLEKYFIRNPNVYLEPRCVTFGAPLVGDSIFSHALGREKWSRFFVNFVTRFDIVPRITLARKASVEETLPHVLAQLDPRNSSVQESEQRITEFYTSVMRDTSTVANQAVCELTGSAEAILETLSSFLELSPYRPAGTFVFSTEKRLVAVNNSDAILQMLFYTCQASDEQEWSLIPFRSIRDHHSYEELVQSMGMKLFNHLDGENSIESSLNDLGVSTRGRQYVQAALEEEKKRVENQKKIIQVIQQERFLKKLAWIEDEYKPKCQAHKNGYYDSFKVSNEENDFKANVKRAELAGVFDEVLGLLKKCQLPDEFEGDIDWIKLATRYRRLVEPLDIANYHRHLKNEDTGPYMKRGRPTRYIYAQRGYEHHILKPNGMIAEDVFWNKVNGLNLGLQLEEIQETLKNSGSECGSCFWAEVEELKGKPYEEVEVRVKTLEGMLREWITAGEVDEKEIFLEGSTFRKWWITLPKNHKSHSPLRDYMMDEITDT
As for B2, in experiment [2], the binding entry is given as “binds”.

For the origin of these results see publication doi:10.1101/362921.
